Measurements: PMC4094919, “Screening and hit evaluation of a chemical library against blood-stage Plasmodium falciparum” (Malaria Journal, 2014)

Test system: P. falciparum NF54 strain
Assay: P. falciparum NF54 growth assay, 3H-hypoxanthine incorporation (hit validation)
Format: cell-based, Plasmodium falciparum
Conditions: Ligand Efficiency Index = pEC50/(MW/1000)
Description: Synthesized compounds were tested in an alternative assay, in which ^3H-hypoxanthine incorporation was measured in the chloroquine-sensitive strain NF54 (Values were measured in duplicate, 12 points/EC50).
Cultivation of Plasmodium falciparum: Plasmodium falciparum strain NF54 was obtained from the Research and Reference Reagent Resource Center (MR4) (Manassas, VA, USA). The two strains were maintained in vitro by a modification of the method of Trager and Jensen. Cultures were maintained in A positive (A^+) human erythrocytes suspended at 5% hematocrit in complete medium. […] Parasite growth and morphology were observed daily using thin smears at 100X (oil immersion) magnification following staining with Giemsa stain. […]
Following the incubation period, the plates were harvested with a FilterMate cell harvester (Perkin Elmer) onto unifilter-96 GF/B plates, washed with distilled water to remove excess radiochemical and plates were kept for drying 37°C overnight or 60°C for 1 hr. […] The plates were counted in a Top Count NXT microplate scintillation and luminescence counter (Perkin Elmer). The mean values for [^3H]-hypoxanthine incorporation in parasitized control and non-parasitized control erythrocytes were calculated.
Assay data were analysed using Graph pad prism ver.5 software. […]

## O=C(Nc1cccc(Cl)c1)N1CC2(CCN(Cc3ccccc3)CC2)c2ccccc21 [Compound 17, 1'-benzyl-N-(3-chlorophenyl)spiro[indoline-3,4'-piperidine]-1-carboxamide]
  LEI (NF54): 15.1
